Assay results: PMC6803673, “Molecular features of the UNC-45 chaperone critical for binding and folding muscle myosin” (Nature Communications, 2019)
No constants are given. Whether binding was seen depends on the method and setting. Some binding calls cover weakened binding; strength is not graded here.

T1: MHC-B muscle myosin motor domain (residues 1–790) (C. elegans) (UniProt P02566)
T1 sequence: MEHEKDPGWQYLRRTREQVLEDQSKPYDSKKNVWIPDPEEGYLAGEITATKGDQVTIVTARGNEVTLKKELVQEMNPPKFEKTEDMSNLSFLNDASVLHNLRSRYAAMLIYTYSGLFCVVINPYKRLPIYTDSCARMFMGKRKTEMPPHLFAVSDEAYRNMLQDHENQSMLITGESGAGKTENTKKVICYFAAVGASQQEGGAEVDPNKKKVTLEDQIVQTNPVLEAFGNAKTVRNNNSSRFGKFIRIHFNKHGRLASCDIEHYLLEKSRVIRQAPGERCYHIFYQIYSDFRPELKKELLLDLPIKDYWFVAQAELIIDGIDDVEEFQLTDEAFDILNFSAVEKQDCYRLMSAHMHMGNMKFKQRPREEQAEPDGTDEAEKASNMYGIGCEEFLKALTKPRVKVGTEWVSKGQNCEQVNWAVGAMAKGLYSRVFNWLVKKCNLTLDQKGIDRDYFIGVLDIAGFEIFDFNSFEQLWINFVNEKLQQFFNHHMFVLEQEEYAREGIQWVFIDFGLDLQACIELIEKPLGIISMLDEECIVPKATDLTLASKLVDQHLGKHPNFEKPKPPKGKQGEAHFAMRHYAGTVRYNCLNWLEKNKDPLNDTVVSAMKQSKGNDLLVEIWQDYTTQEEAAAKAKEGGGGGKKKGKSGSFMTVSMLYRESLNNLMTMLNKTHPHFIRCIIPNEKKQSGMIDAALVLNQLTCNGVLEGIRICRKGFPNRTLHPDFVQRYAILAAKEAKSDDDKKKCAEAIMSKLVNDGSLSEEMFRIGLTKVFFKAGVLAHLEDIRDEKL

B1: UNC-45 L822F (ts mutant, bacterial) (protein, UniProt G5EG62 1-961)
chain: MVARVQTAEEIRDEGNAAVKDQDYIKADELYTEALQLTTDEDKALRPVLYRNRAMARLKRDDFEGAQSDCTKALEFDGADVKALFRRSLAREQLGNVGPAFQDAKEALRLSPNDKGIVEVLQRLVKANNDKIKQTTSLANKVTDMEKLAFRGEAKDTEQKMTALNNLLVLCRESESGATGVWNQGALVPFVLNLINDASENEEVTVTAIRILDETIKNSVRCMKFLAMHDPDGPKSVRFVCRLMCKKSTKDFVDATGILVQRVFNAMAKMDRQKEMKPDPEVAEANKIWIIRVLLELQEMLQDPKVGAVQRETCIDLFLKNLMHMDGGIPRGWSWKFVEERGLLALLDVASQIPELCEYPVSAETRQHVAICLQRLEEDMVFDTKRTIFKEKVDMFFNALISRCTNDDEGHKYRIKLSCFLITMLQGPVDIGINLITNDQLTPIMLEMAASQDHLMQGIAAELIVATVSKHERAINMLKVGIPVLRALYDSEDPTVKVRALVGLCKIGAAGGDDISKATMKEEAVISLAKTCKKFLLETEKYSVDIRRYACEGLSYLSLDADVKEWIVDDSLLLKALVLLAKKAGALCVYTLATIYANLSNAFEKPKVDEEMVKLAQFAKHHVPETHPKDTEEYVEKRVRALVEEGAVPACVAVSKTESKNALELIARSLLAFAEYEDLRGRIIAEGGTVLCLRLTKEASGEGKIKAGHAIAKLGAKADPMISFPGQRAYEVVKPLCDLLHPDVEGKANYDSLLTLTNLASVSDSIRGRILKEKAIPKIEEFWFMTDHEHLRAAAAELLLNLLFFEKFYEETVAPGTDRLKFWVLYSAEVEEERLSRASAAGFAILTEDENACARIMDEIKSWPEVFKDIAMHEDAETQRRGLMGIANIMHSSNKLCSEIVSSEVFRVLVAVTKLGTINQERAGSTEQAKRGLEAAEKFGLIKATDREIYERENQMSTIQE
B2: MHC-B muscle myosin motor domain (residues 1–790) (domain or fragment, C. elegans, UniProt P02566 1-790, looked up)
chain: MEHEKDPGWQYLRRTREQVLEDQSKPYDSKKNVWIPDPEEGYLAGEITATKGDQVTIVTARGNEVTLKKELVQEMNPPKFEKTEDMSNLSFLNDASVLHNLRSRYAAMLIYTYSGLFCVVINPYKRLPIYTDSCARMFMGKRKTEMPPHLFAVSDEAYRNMLQDHENQSMLITGESGAGKTENTKKVICYFAAVGASQQEGGAEVDPNKKKVTLEDQIVQTNPVLEAFGNAKTVRNNNSSRFGKFIRIHFNKHGRLASCDIEHYLLEKSRVIRQAPGERCYHIFYQIYSDFRPELKKELLLDLPIKDYWFVAQAELIIDGIDDVEEFQLTDEAFDILNFSAVEKQDCYRLMSAHMHMGNMKFKQRPREEQAEPDGTDEAEKASNMYGIGCEEFLKALTKPRVKVGTEWVSKGQNCEQVNWAVGAMAKGLYSRVFNWLVKKCNLTLDQKGIDRDYFIGVLDIAGFEIFDFNSFEQLWINFVNEKLQQFFNHHMFVLEQEEYAREGIQWVFIDFGLDLQACIELIEKPLGIISMLDEECIVPKATDLTLASKLVDQHLGKHPNFEKPKPPKGKQGEAHFAMRHYAGTVRYNCLNWLEKNKDPLNDTVVSAMKQSKGNDLLVEIWQDYTTQEEAAAKAKEGGGGGKKKGKSGSFMTVSMLYRESLNNLMTMLNKTHPHFIRCIIPNEKKQSGMIDAALVLNQLTCNGVLEGIRICRKGFPNRTLHPDFVQRYAILAAKEAKSDDDKKKCAEAIMSKLVNDGSLSEEMFRIGLTKVFFKAGVLAHLEDIRDEKL
notes: C. elegans body wall muscle myosin II heavy chain isoform B (MHC-B, UNC-54), motor domain, residues 1-790, cloned from C. elegans cDNA; In the SEC assays with UNC-45 the protein was heat-damaged (unfolded or misfolded) at 27 °C; Two vectors (pFastBac DUAL, pACEBac1) encode the same 1-790 His6 protein; also called myosin II heavy chain isoform B; UNC-54; source: High Five insect cells, …

Experiments:
[1] = molecular target: UNC-45 L822F (ts mutant, bacterial) (C. elegans) (UniProt G5EG62); experiment: crystal structure; UNC-45 mutant crystals grown by sitting drop vapor diffusion at 19 °C; both purified
[2] = molecular target: T1, MHC-B muscle myosin motor domain (residues 1–790) (C. elegans); experiment: SEC; MHC-B after NiNTA on Superdex 200 5/150 GL, 50 mM Tris pH 7.5, 150 mM NaCl; both purified

| Binder | binding [1] | binding [2] |
| --- | --- | --- |
| B1 | binds | – |
| B2 | – | no binding |
